By UniProt entry, the sequences of proteins in these tests, tags left out. Where a name states a change or a piece, a line headed by the entry shows the natural chain unless it says otherwise.
UniProt P18054: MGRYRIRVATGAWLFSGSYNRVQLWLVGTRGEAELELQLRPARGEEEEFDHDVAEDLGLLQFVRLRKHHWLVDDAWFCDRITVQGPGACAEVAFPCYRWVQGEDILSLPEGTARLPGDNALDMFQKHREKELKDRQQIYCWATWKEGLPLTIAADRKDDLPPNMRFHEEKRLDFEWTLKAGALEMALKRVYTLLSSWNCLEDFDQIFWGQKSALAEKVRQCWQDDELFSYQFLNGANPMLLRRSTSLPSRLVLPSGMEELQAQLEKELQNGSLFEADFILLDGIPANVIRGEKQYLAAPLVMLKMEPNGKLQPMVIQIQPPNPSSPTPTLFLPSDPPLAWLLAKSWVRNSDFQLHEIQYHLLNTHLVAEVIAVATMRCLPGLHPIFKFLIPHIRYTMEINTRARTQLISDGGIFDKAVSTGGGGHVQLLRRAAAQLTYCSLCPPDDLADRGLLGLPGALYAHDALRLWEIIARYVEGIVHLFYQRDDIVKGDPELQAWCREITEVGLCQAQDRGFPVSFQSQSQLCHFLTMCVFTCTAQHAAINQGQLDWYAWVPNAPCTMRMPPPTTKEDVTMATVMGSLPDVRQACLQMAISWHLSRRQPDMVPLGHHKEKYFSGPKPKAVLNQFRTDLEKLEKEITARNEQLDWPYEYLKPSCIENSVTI

Where “and” joins values, the source holds several entries; their conditions need not be identical. Equal values may be shown once. Screen size: about 580,000 compounds; about 6,100 (1.1%) were called active. This list was built around the results that the source calls inconclusive (neither active nor inactive); the mix of calls is not that of the screen. Calls follow the shape of the dose curve; as a rule, active = well fitted inhibition curve with a large enough effect; inconclusive = small, poorly fitted or top-dose-only effect, or another doubt; inactive = no such curve, though single readings can be large or run the other way. Potencies of inconclusive entries are doubtful fits and often do not repeat.
These compounds were tested against Polyunsaturated fatty acid lipoxygenase ALOX12 (Homo sapiens) (UniProt P18054) (assay: Primary qHTS assay for inhibitors of human arachidonate 12S-lipoxygenase (ALOX12): Round 2). Conditions: purified 12hLO, xylenol orange hydroperoxide absorbance; activity change, negative = inhibition: at 108 µM (top of the series) unless noted.
How it was run: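 Hydroperoxide product was detected by ferrous iron/xylenol orange as the 573 to 405 nm absorbance ratio. Arachidonic acid at 40 uM (final) was turned over for 30 min at room temperature by 150 nM human 12hLO, pH 7.0 Hepes buffer, after 15 min compound preincubation.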
For `Cn1c(=O)c2c(nc(NCCc3ccc(F)cc3)n2Cc2ccccc2Cl)n(C)c1=O`, the “activity change, negative = inhibition” value was inactive: 6.88%.
In the case of `OC1(CN2CCC(OCc3ccccn3)CC2)CNCCOC1` (configuration not stated), the Potency is reported as inconclusive: 12.6 µM [inhibitor, full curve].
In the case of `O=C(c1ccccn1)N1CCCC2(CC(c3ccccn3)=NO2)C1` (configuration not stated), the activity change, negative = inhibition is reported as inactive: 2.15% [at 6.33 µM].
For `Cc1ccc(S(C)(=O)=O)cc1NCc1c(F)cccc1Cl`, the Potency was inconclusive: 112 µM [inhibitor, single point].
`Cc1ccc(N(O)C(C)(C)C)cc1` was tested, and the Potency was inconclusive: 17.8 µM [inhibitor, full curve, poor fit].
`CCC(CC)C(=O)N1CCN(c2ccccc2)CC1` was tested, and the Potency was inconclusive: 11.2 µM [inhibitor, full curve].
`Cc1ccccc1-n1cc(C(=O)c2cc(Cl)ccc2O)cc(C#N)c1=O` was tested, and the Potency was inconclusive: 100 µM [inhibitor, partial curve, poor fit].
With `C=Cc1ccc(Cn2c(=O)n(C)c(=O)c3sccc32)cc1` the “activity change, negative = inhibition” value was inactive: 0.681%.
In the case of `CC1CCc2nc(/C(C#N)=C\c3ccco3)sc2C1` (configuration not stated), the Potency is reported as inconclusive: 12.6 µM [inhibitor, full curve, poor fit].
In the case of `CC(C(=O)NCc1ccccc1F)n1nc(-c2ccccc2)c2ccccc21` (configuration not stated), the “activity change, negative = inhibition” value is reported as inactive: -10.6%.
`Cc1ccc(S(=O)(=O)NCC(=O)OCC(=O)c2ccc(Br)s2)cc1` was tested, and the Potency was inconclusive: 15.8 µM [inhibitor, full curve, poor fit].
`O=C(c1ccc(NC2=NC3CS(=O)(=O)CC3S2)cc1)N1CCN(c2ccc(F)cc2)CC1` (configuration not stated) was tested, and the Potency was inconclusive: 39.8 µM [inhibitor, partial curve, poor fit].
`CCn1c(CCNC(=O)c2ccccc2F)nnc1SCC(=O)N1CCN(c2ccccc2)CC1` was tested, and the “activity change, negative = inhibition” value was inactive: -23.9%.
For `CC(CCc1ccccc1)NC(=S)NC(=O)c1ccco1` (configuration not stated), the Potency was inconclusive: 44.7 µM [inhibitor, partial curve, poor fit].
In the case of `CC(=O)N(c1ccc(C)cc1)S(=O)(=O)c1ccc(Cl)cc1`, the “activity change, negative = inhibition” value is reported as inactive: -30%.
`COc1c(C)cnc(Cn2ccn3nc(-c4ccc(F)cc4)c(CO)c3c2=O)c1C` was tested, and the “activity change, negative = inhibition” value was inactive: -15.8%.
In the case of `C=CCc1ccccc1OCC(O)CN` (configuration not stated), the “activity change, negative = inhibition” value is reported as inactive: -0.537%.
For `COc1cc(=O)n2c(c1C(=O)NCc1ccco1)CCN(Cc1cc3ccccc3[nH]1)CC2`, the Potency was inconclusive: 89.1 µM [inhibitor, partial curve, poor fit].
For `CC1CN(C(=O)/C(C#N)=C2\N=C(NC(=O)c3ccc(F)cc3)c3ccccc32)CC(C)O1` (configuration not stated), the Potency was inconclusive: 112 µM [inhibitor, partial curve, poor fit].
`COc1ccc(OCc2nnc3n2N=C(c2ccc(Br)cc2)CS3)cc1` was tested, and the “activity change, negative = inhibition” value was inactive: 282%.
With `CCC1=Nc2cc(C(=O)NC(C)c3ccccc3)ccc2Sc2ccc(Cl)cc21` (configuration not stated) the Potency was inconclusive: 126 µM [inhibitor, partial curve, poor fit].
In the case of `OC(c1ccc(F)c(F)c1)c1nc(-c2ccc(F)c(Cl)c2)cs1` (configuration not stated), the Potency is reported as inconclusive: 50.1 µM [inhibitor, partial curve, poor fit].
For `COc1ccc2c(c1)CCc1sc(NC(=O)c3ccc(Cl)cc3)nc1-2`, the Potency was inconclusive: 35.5 µM [inhibitor, single point].
`COc1ccc(C2(c3ccc(Cl)cc3)CCCCC2)cc1` was tested, and the Potency was inconclusive: 79.4 µM [inhibitor, single point].
In the case of `Cc1ccc(-n2c(-c3ccncc3)n[nH]c2=S)c(C)c1`, the Potency is reported as inconclusive: 44.7 µM [inhibitor, partial curve, poor fit].
In the case of `Cc1cc(C2=NNC(=NC3CC3)SC2)c(C)n1Cc1ccco1`, the Potency is reported as inconclusive: 89.1 µM [inhibitor, partial curve, poor fit].
With `COc1ccc(-c2nc(C#N)c(NC3CC3)o2)cc1` the Potency was inconclusive: 50.1 µM [inhibitor, partial curve, poor fit].
In the case of `O=C(NCc1c[nH]c2ncccc12)c1cccc(Br)c1`, the Potency is reported as inconclusive: 79.4 µM [inhibitor, partial curve].
For `COc1ccc(Cn2nnnc2CN2CCN(c3ccc(OC)cc3)CC2)cc1`, the Potency was inconclusive: 126 µM [inhibitor, partial curve, poor fit].
`O=C(O)CCCN1C(=O)/C(=C\c2ccccc2OCc2ccccc2)SC1=S` was tested, and the Potency was inconclusive: 50.1 µM [inhibitor, partial curve, poor fit].
`COc1ccc(-c2noc(CC3CCN(C(=O)CCCc4ccccc4)CC3)n2)cc1` was tested, and the Potency was inconclusive: 70.8 µM [inhibitor, single point].
With `CCc1ccc(CCC(=O)NCc2ccncc2)cc1` the Potency was inconclusive: 35.5 µM [inhibitor, single point].
With `N#Cc1ccc(CSc2nnc3c(Cl)cc(C(F)(F)F)cn23)cc1` the Potency was inconclusive: 3.98 µM [inhibitor, single point].
With `CCOC(=O)C1=C(C)c2ccccc2OC1(C)C(=O)OCC` (configuration not stated) the Potency was inconclusive: 70.8 µM [inhibitor, single point].
For `C=CCOc1c(Br)cc(/C=C2/C(=O)ON=C2C)cc1OC`, the Potency was active: 15.8 µM.
In the case of `NC(=O)c1cccnc1NCCc1cccs1`, the Potency is reported as inconclusive: 44.7 µM [inhibitor, partial curve, poor fit].
With `Cc1cccc(N2CCN(C(=O)c3ccccc3NC(=O)Cn3c(C)cc(C)c(C#N)c3=O)CC2)c1C` the “activity change, negative = inhibition” value was inactive: -44.2%.
`Ic1ccc(N2CCN(Cc3c[nH]c4ncccc34)CC2)cc1` was tested, and the Potency was “inactive and inconclusive: 35.5 µM [inhibitor, partial curve, poor fit]”.
For `CC(C)(C)c1ccnc(N[C@H]2CO[C@H]3[C@@H]2OC[C@@H]3NS(=O)(=O)c2cccs2)n1`, the “activity change, negative = inhibition” value was inactive: 0.444% [at 176 µM].
With `COC(=O)c1ccc(C2/C(=C(\O)c3ccc(F)cc3)C(=O)C(=O)N2c2ccccn2)cc1` (configuration not stated) the Potency was inconclusive: 63.1 µM [inhibitor, partial curve, poor fit].
For `Cc1ccc(C2=N/C(=C\c3ccc(F)cc3)C(=O)N2)cc1`, the “activity change, negative = inhibition” value was inactive: 2.33%.
In the case of `CCCOc1cc(C)c2c(c1C)C[C@H](C(C)C(=O)N1CCC(O)CC1)CC2` (some centres not stated), the Potency is reported as inconclusive: 112 µM [inhibitor, partial curve, poor fit].

— PubChem BioAssay AID1671190 (National Center for Advancing Translational Sciences (NCATS), 2021)
% is scaled to controls: 0 for no effect and ±100 for the full control effect; potency is read from the fitted curve at half-maximal effect.
